The text below walks through data of the supplement of paper PMC10735217.

The subject of the experiment is HEK293A TEAD-LUC reporter. In words: TEAD-luciferase reporter activity (YAP activation), robust Z score vs plate; higher = stronger YAP/TEAD activation. As to conditions: 24 h. (A reporter such as luciferase makes a cellular process visible.)

Some of the results follow. This data set is noisy: repeats of one test often differ as much as different tests do.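 Human kidney-derived cells stably carry a construct in which eight TEAD-binding elements drive luciferase, measured by luminescence in a drug-repurposing library screen. A hit is any compound whose signal exceeds the plate mean by more than five robust Z scores.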

`CCOC(=O)[C@@H]1CSC(c2ccc(OC)c(OC)c2)N1` (some centres not stated): the TEAD-luciferase reporter activity (compound concentration: 200 nM) is inactive: -0.757, the TEAD-luciferase reporter activity (compound concentration: 2 uM) is inactive: 0.185 and the TEAD-luciferase reporter activity (compound concentration: 10 uM) was inactive: -0.584.

As for `C[C@]12CC[C@H](O)CC1=CC[C@@H]1[C@@H]2CC[C@]2(C)C(c3cccnc3)=CC[C@@H]12` [Pharmaprojects No. 4598], the TEAD-luciferase reporter activity by setting is: (compound concentration: 200 nM) inactive: -0.425; (compound concentration: 2 uM) inactive: 4.36; (compound concentration: 10 uM) inactive: 1.11.

Turning to `O=C(c1ccc(F)cc1)N1CCC(C(=O)N2CCC(N3Cc4ccccc4C3=O)CC2)CC1`, the TEAD-luciferase reporter activity by setting is: (compound concentration: 200 nM) inactive: 0.202; (compound concentration: 10 uM) inactive: 0.849.

Consider `CCCCC(CC)COC(=O)/C=C/c1ccc(OC)cc1` (configuration not stated) [Bergasol], for which the TEAD-luciferase reporter activity was inactive: -0.104 (compound concentration: 200 nM), inactive: 1.31 (compound concentration: 2 uM) and inactive: -0.848 (compound concentration: 10 uM).

With `CC1N(C(=O)c2ccccc2C(F)(F)F)CCOC1(Cn1cncn1)c1ccc(F)cc1F` (configuration not stated) [analog of UR 9751], the TEAD-luciferase reporter activity (compound concentration: 2 uM) is inactive: -1.06.

Regarding `CC1N(C(=O)c2ccccc2C(F)(F)F)CCOC1(Cn1cncn1)c1ccc(F)cc1F` (configuration not stated), the TEAD-luciferase reporter activity is, setting by setting: (compound concentration: 200 nM) inactive: -0.967; (compound concentration: 10 uM) inactive: 1.42.

As to `CN1C(=O)N(c2cc(Cl)cc(Cl)c2)C(=O)[C@]12CN(c1ccc(C(=O)O)cn1)C[C@H]2c1ccc(C#N)cc1`, the TEAD-luciferase reporter activity reads like this: (compound concentration: 200 nM) inactive: 1.94; (compound concentration: 2 uM) inactive: 1.2; (compound concentration: 10 uM) inactive: -1.61.

For the compound `CCN1CCN(C(C)C)[C@H]2CCn3c(c(C)c4ccccc43)[C@@H]21` [atiprosin], the TEAD-luciferase reporter activity was inactive: -0.825 (compound concentration: 200 nM), inactive: 0.939 (compound concentration: 2 uM) and inactive: 3.49 (compound concentration: 10 uM).

As for `C[C@H]1[C@H]2N(C(=O)CN(C)N2C(=O)NCc2ccccc2)[C@@H](Cc2ccc(O)cc2)C(=O)N1Cc1cccc2cccnc12`, the TEAD-luciferase reporter activity by setting is: (compound concentration: 200 nM) inactive: -2.05; (compound concentration: 2 uM) inactive: 0.0309; (compound concentration: 10 uM) inactive: 1.22.

As for `Cc1ccc(N(C=C2NCCN2)c2cccc(O)c2)cc1`, the TEAD-luciferase reporter activity (compound concentration: 200 nM) is inactive: 0.594, the TEAD-luciferase reporter activity (compound concentration: 2 uM) is inactive: -1.61 and the TEAD-luciferase reporter activity (compound concentration: 10 uM) was inactive: -0.0702.

Consider `O=C1CCc2ccccc2O1`, for which the TEAD-luciferase reporter activity reads like this: (compound concentration: 200 nM) inactive: 0.608; (compound concentration: 2 uM) inactive: -0.066; (compound concentration: 10 uM) inactive: -1.04.

As to `Cc1cc(C)cc(-c2ccc(CN3CCCC3C(=O)NCc3ccc(C(F)(F)F)cc3)cc2)c1` (configuration not stated), the TEAD-luciferase reporter activity (compound concentration: 200 nM) is inactive: 1.08 and the TEAD-luciferase reporter activity (compound concentration: 10 uM) is inactive: -0.911.

Turning to `CCOc1nn(Cc2ccc(OCc3csc(-c4ccccc4)n3)cc2)cc1CCC(=O)O` [Sipoglitazar], the TEAD-luciferase reporter activity is inactive: 0.114 (compound concentration: 200 nM), inactive: -0.341 (compound concentration: 2 uM) and inactive: -0.698 (compound concentration: 10 uM).

For the compound `CC(=O)N1Cc2ccccc2OC2(CCN(C(=O)C3CCN(C)CC3)CC2)C1`, the TEAD-luciferase reporter activity (compound concentration: 200 nM) is inactive: 4.01.

`COc1cccc(C(=O)NC2CCCN(Cc3ccc(-c4cc(C)cc(C)c4)cc3)C2)c1` (configuration not stated): the TEAD-luciferase reporter activity by setting is: (compound concentration: 200 nM) inactive: -0.934; (compound concentration: 10 uM) inactive: 0.698.

Take `COC(CN1CCC(C(=O)c2ccc(F)cc2)CC1)c1ccc([N+](=O)[O-])cc1` (configuration not stated): the TEAD-luciferase reporter activity (compound concentration: 200 nM) was inactive: 0.401, the TEAD-luciferase reporter activity (compound concentration: 2 uM) is inactive: -0.426 and the TEAD-luciferase reporter activity (compound concentration: 10 uM) is inactive: 2.52.

Turning to `N=C(N)NCCC[C@H](NC(=O)[C@@H]1CCCN1C(=O)[C@@H]1CSSC[C@H](N)C(=O)N[C@@H](Cc2ccc(O)cc2)C(=O)N[C@@H](Cc2ccccc2)C(=O)N[C@@H](CCC(N)=O)C(=O)N[C@@H](CC(N)=O)C(=O)N1)C(=O)NCC(N)=O` [Argipressin], the TEAD-luciferase reporter activity (compound concentration: 200 nM) is inactive: -1.22, the TEAD-luciferase reporter activity (compound concentration: 2 uM) was inactive: -0.644 and the TEAD-luciferase reporter activity (compound concentration: 10 uM) is inactive: 1.12.

`CC(=O)[O][Pt-2]([NH3+])([Cl])([Cl])([NH2+]C12CC3CC(CC(C3)C1)C2)[O]C(C)=O`: the TEAD-luciferase reporter activity reads like this: (compound concentration: 200 nM) inactive: -0.379; (compound concentration: 2 uM) inactive: -0.544; (compound concentration: 10 uM) inactive: -0.784.

With `CC(C)N1CCN(c2cc(-c3ccccc3)c(C(F)(F)F)nn2)CC1`, the TEAD-luciferase reporter activity (compound concentration: 200 nM) is inactive: -0.833, the TEAD-luciferase reporter activity (compound concentration: 2 uM) was inactive: -0.305 and the TEAD-luciferase reporter activity (compound concentration: 10 uM) is inactive: 1.01.

Regarding `CC1(C)SCCN(S(=O)(=O)c2ccc(Oc3ccncc3)cc2)[C@H]1C(=O)NO` [Prinomastat], the TEAD-luciferase reporter activity reads like this: (compound concentration: 200 nM) inactive: -0.658; (compound concentration: 2 uM) inactive: -0.127; (compound concentration: 10 uM) inactive: -1.72.

Turning to `C[Si](C)(C)O[Si](C)(C)O[Si](C)(C)C` [dimethicone], where the note is “compound concentration: 2 uM”, the TEAD-luciferase reporter activity is inactive: -1.2.

`C[Si](C)(C)O[Si](C)(C)O[Si](C)(C)C` [dimethicone, Applied Biology]: the TEAD-luciferase reporter activity (compound concentration: 200 nM) was inactive: 1.26 and the TEAD-luciferase reporter activity (compound concentration: 10 uM) was inactive: 0.0844.

Turning to `Cc1cc(C)c(/C=C2\C(=O)Nc3ccccc32)[nH]1` [Semaxanib], the TEAD-luciferase reporter activity by setting is: (compound concentration: 200 nM) inactive: -1.1; (compound concentration: 2 uM) inactive: -0.647; (compound concentration: 10 uM) inactive: -0.0313.

As for `Oc1c(CN2CCCC2)cc(Nc2ncnc3ccccc23)cc1CN1CCCC1` [Changrolin], the TEAD-luciferase reporter activity (compound concentration: 200 nM) is inactive: -1.43, the TEAD-luciferase reporter activity (compound concentration: 2 uM) is inactive: 1.27 and the TEAD-luciferase reporter activity (compound concentration: 10 uM) is inactive: 0.196.

For `COc1cc2c(cc1OC)[C@H]1C[C@@H](O)[C@H](CC(C)C)CN1CC2` [(+)-alpha-Dihydrotetrabenazine], the TEAD-luciferase reporter activity reads like this: (compound concentration: 200 nM) inactive: -1.28; (compound concentration: 2 uM) inactive: -0.442; (compound concentration: 10 uM) inactive: 3.19.

On to `CC(=O)OCOC(=O)C1N2C(=O)C(NC(=O)Cc3ccccc3)C2SC1(C)C` (configuration not stated), for which the TEAD-luciferase reporter activity was inactive: -2.29 (compound concentration: 200 nM), inactive: 2.43 (compound concentration: 2 uM) and inactive: 0.538 (compound concentration: 10 uM).
